Our source for the binding values is article PMC5594048.

Sequences of proteins named here, by UniProt entry; tags and fusion partners are left off. A change or cut given only in a name is not applied to a line headed by its entry.
UniProt Q39026: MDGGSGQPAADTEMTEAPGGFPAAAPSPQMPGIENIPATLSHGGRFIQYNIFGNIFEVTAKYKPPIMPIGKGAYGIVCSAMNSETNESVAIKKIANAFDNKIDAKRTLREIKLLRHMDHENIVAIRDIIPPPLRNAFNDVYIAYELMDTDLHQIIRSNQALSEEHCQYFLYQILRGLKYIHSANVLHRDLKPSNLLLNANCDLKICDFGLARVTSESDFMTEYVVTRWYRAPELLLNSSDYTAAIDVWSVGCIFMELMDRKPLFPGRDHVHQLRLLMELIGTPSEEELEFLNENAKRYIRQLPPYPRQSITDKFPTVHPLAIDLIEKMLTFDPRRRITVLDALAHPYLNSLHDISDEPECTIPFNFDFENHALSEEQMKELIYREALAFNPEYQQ
UniProt Q6NN02: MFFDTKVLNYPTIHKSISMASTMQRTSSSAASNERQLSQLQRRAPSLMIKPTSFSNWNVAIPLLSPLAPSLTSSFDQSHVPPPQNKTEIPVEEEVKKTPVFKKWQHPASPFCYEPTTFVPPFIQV

These are yes or no findings as the source states them, for the method shown. In cells and extracts the contact can be indirect. For some assays here: Binding calls can cover weak binding; strength is not graded here. For some assays here: Tags and fused reporters may be left off the sequences shown.

Assay in all cases: split reporter; BiFC in Arabidopsis mesophyll protoplasts transiently co-expressing cYFP fusions of PRP/PH1/PH2 and nYFP fusions of MAPKs; confocal microscopy; for wild type against docking site mutants with MPK6 a p35S-CFP plasmid was co-transformed and YFP/CFP ratios were calculated
In experiment [1] the target is MPK6 fused to the N-terminal half of YFP (MPK6-nYFP) (Arabidopsis thaliana) (UniProt Q39026).
Experiment [2] deals with T1, MPK11 fused to the N-terminal half of YFP (MPK11-nYFP) (Arabidopsis thaliana) (UniProt Q9LMM5).
T1 sequence: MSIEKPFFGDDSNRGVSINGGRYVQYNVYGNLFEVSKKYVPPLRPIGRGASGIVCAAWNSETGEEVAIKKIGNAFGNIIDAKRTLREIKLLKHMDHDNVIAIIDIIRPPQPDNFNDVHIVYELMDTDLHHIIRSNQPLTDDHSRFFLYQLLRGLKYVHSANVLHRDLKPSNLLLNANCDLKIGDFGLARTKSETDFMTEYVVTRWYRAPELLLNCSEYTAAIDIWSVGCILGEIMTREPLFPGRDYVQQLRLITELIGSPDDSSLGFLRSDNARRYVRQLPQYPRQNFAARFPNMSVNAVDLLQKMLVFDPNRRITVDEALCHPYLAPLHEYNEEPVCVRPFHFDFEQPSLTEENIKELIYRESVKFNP

Experiment [3] deals with T2, MPK3 fused to the N-terminal half of YFP (MPK3-nYFP) (Arabidopsis thaliana) (UniProt Q39023).
T2 sequence: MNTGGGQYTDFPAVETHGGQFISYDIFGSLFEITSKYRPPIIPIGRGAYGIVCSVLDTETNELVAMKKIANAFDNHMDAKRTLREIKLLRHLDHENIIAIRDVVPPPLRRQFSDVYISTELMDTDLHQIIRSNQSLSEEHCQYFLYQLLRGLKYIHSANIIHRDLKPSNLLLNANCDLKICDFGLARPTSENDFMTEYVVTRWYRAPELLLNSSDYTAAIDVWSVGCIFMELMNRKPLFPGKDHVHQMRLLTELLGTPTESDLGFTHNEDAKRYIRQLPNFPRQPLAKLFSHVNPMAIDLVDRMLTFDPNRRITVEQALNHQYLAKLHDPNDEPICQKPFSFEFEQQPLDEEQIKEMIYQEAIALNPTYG

For experiment [4], the target named is T3, MPK8 fused to the N-terminal half of YFP (MPK8-nYFP) (Arabidopsis thaliana) (UniProt Q9LM33).
T3 sequence: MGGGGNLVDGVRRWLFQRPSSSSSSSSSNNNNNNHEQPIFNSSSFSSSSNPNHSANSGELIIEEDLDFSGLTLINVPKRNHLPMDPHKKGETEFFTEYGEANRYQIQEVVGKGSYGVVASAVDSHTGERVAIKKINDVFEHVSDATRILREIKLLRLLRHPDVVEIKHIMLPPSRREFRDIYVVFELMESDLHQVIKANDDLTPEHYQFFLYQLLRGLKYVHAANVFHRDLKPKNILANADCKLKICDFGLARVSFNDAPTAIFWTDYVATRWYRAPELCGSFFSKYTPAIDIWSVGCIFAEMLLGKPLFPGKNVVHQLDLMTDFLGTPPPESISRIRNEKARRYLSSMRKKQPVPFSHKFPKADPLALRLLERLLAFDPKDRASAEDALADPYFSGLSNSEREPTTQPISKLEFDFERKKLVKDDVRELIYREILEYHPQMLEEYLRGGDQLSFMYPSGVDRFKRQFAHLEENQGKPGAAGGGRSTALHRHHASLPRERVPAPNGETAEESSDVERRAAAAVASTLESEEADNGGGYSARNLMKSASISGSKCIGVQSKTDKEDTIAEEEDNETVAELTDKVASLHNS

Turning to “PH1 MAPK docking site mutant fused to cYFP (PH1 DSM-cYFP) (from UniProt Q6NN02)”, the binding result in experiment [1] is recorded as “binds weakly”.

On to “PH2 fused to the C-terminal half of Yellow Fluorescent Protein (PH2-cYFP) (Arabidopsis thaliana)”, for which the binding entry in experiment [2] was “binds”; in experiment [3], “binds”; in experiment [4], “no binding”.

On to “PH1 fused to the C-terminal half of Yellow Fluorescent Protein (PH1-cYFP) (from UniProt Q6NN02)”, for which the binding entry in experiment [1] is reported as “binds”.

With “PRP fused to the C-terminal half of Yellow Fluorescent Protein (PRP-cYFP) (Arabidopsis thaliana)”, the binding entry in experiment [2] is “binds”; in experiment [3] it was “binds”; in experiment [4] it was “no binding”.
